In publication PMC12152620:
No constants are given. Whether binding was seen depends on the method and setting. For some assays here: In cells and extracts the contact can be indirect. Some results given as binding are weak or reduced against the parent protein; the word gives no strength. Where a sequence is shown, tags or fusion partners need not be part of it.

T1: His-tagged Rsa1p (S. cerevisiae) (UniProt Q08932)
T1 sequence: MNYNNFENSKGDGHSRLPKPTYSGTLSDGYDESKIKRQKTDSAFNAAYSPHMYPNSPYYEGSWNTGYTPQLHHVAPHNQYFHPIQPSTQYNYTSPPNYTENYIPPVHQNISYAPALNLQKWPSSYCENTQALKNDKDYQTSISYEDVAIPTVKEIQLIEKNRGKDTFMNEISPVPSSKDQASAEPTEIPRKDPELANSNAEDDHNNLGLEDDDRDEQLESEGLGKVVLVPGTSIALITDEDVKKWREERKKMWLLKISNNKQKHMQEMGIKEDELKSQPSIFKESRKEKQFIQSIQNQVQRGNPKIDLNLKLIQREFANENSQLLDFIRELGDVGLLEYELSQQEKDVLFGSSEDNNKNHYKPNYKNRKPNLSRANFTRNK

T2: His-tagged Rsa1p complexed with Hit1p (S. cerevisiae) (UniProt Q08932+P46973)
T2 sequence 1: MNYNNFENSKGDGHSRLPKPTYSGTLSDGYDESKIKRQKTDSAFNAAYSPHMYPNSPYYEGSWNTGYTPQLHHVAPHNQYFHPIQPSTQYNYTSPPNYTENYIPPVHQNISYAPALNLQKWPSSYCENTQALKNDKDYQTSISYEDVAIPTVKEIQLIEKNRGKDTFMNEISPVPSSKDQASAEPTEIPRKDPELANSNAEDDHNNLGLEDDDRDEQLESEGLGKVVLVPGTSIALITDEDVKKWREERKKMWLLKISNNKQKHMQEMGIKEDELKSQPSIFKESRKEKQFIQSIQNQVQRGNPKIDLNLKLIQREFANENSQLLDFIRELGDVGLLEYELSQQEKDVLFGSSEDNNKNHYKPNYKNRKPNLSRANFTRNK
T2 sequence 2: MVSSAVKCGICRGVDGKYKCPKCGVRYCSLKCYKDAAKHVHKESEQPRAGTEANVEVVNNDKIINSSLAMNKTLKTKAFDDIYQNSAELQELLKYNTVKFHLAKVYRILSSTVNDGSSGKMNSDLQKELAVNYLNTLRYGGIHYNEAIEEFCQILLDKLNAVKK


Columns and labels:
[1] = target: T1, His-tagged Rsa1p (S. cerevisiae); assay: co-purification (Ni-NTA); Rsa1p and Hit1p co-expressed in E. coli; lysate in 20 mM Tris-HCl pH 7.5, 500 mM NaCl, 20 mM imidazole applied to Ni-NTA; eluted with 250 mM imidazole
[2] = target: T2, His-tagged Rsa1p complexed with Hit1p (S. cerevisiae); assay: pull-down; His-tagged Rsa1p (purified as a complex with Hit1p) on Dynabeads His-Tag magnetic beads, incubated with E. coli lysate containing FLAG-tagged Atg8p overnight at 4 °C; washed 4 times with 50 mM Na3PO4, 300 mM NaCl, 0.1% Triton X-100; eluted with 300 mM imidazole; Western blotting with anti-His-tag and anti-FLAG-tag antibodies; only the target purified

binding [1] | binding [2] | Binder
binds | – | Hit1p (protein, UniProt P46973 1-164) MVSSAVKCGICRGVDGKYKCPKCGVRYCSLKCYKDAAKHVHKESEQPRAGTEANVEVVNNDKIINSSLAMNKTLKTKAFDDIYQNSAELQELLKYNTVKFHLAKVYRILSSTVNDGSSGKMNSDLQKELAVNYLNTLRYGGIHYNEAIEEFCQILLDKLNAVKK
– | binds | FLAG-tagged Atg8p (protein, UniProt P38182 1-117) MKSTFKSEYPFEKRKAESERIADRFKNRIPVICEKAEKSDIPEIDKRKYLVPADLTVGQFVYVIRKRIMLPPEKAIFIFVNDTLPPTAALMSAIYQEHKDKDGFLYVTYSGENTFGR
